The values below come from patent publication US20240374644A1.

These are yes or no findings as the source states them, for the method shown. Binding calls can cover weak binding; strength is not graded here.

This assay concerns the target CD8 protein. Description: ELISA, wells coated with 1 ug/ml protein, anti-GST detection.

B1: CD3 BiTE (K3Bi), anti-HERV-K 6H5 scFv linked to anti-CD3 scFv (bispecific antibody, not shown: a dimerising Fc or GST)
chain: TGMDIELTQSPSSLAVSLGQRATISCRASESVDSHGTSLMHWYQQKPGQPPKFLIYRASNLESGIPARFSGSGSRTDFTLTINPVETDDVAIYYCQQSNEDPPTFGGGTKLELKEGGGSGGGGSGGGGSAQVKLQQSGPDLVKPGASVKISCKASGYSFTGYYMHWVKQSHGKSLEWIGRVNPNSGGTSYNQKFKDKAILTVDKSSSTAYMELRSLTSEDSAVYYCARSKGNYFYAMDYWGQGTTVTVSSSGGGGSEVQLVESGGGLVQPGGSLRLSCAASGYSFTGYTMNWVRQAPGKGLEWVALINPYKGVSTYNQKFKDRFTISVDKSKNTAYLQMNSLRAEDTAVYYCARSGYYGDSDWYFDVWGQGTLVTVSSGGGGSGGGGSGGGGSDIQMTQSPSSLSASVGDRVTITCRASQDIRNYLNWYQQKPGKAPKLLIYYTSRLESGVPSRFSGSGSGTDYTLTISSLQPEDFATYYCQQGNTLPWTFGQGTKVEIKEQKLISEEDLDYKDDDDKEF
Take B1: the binding result is recorded as “binds”.
